From the supplement of paper PMC12067093, “Discovery and optimisation of a covalent ligand for TRIM25 and its application to targeted protein ubiquitination” (Chemical Science, 2025)
This is one part of the list.

By UniProt entry, the sequences of proteins in these tests, tags left out. Where a name states a change or a piece, a line headed by the entry shows the natural chain unless it says otherwise.
UniProt P46939: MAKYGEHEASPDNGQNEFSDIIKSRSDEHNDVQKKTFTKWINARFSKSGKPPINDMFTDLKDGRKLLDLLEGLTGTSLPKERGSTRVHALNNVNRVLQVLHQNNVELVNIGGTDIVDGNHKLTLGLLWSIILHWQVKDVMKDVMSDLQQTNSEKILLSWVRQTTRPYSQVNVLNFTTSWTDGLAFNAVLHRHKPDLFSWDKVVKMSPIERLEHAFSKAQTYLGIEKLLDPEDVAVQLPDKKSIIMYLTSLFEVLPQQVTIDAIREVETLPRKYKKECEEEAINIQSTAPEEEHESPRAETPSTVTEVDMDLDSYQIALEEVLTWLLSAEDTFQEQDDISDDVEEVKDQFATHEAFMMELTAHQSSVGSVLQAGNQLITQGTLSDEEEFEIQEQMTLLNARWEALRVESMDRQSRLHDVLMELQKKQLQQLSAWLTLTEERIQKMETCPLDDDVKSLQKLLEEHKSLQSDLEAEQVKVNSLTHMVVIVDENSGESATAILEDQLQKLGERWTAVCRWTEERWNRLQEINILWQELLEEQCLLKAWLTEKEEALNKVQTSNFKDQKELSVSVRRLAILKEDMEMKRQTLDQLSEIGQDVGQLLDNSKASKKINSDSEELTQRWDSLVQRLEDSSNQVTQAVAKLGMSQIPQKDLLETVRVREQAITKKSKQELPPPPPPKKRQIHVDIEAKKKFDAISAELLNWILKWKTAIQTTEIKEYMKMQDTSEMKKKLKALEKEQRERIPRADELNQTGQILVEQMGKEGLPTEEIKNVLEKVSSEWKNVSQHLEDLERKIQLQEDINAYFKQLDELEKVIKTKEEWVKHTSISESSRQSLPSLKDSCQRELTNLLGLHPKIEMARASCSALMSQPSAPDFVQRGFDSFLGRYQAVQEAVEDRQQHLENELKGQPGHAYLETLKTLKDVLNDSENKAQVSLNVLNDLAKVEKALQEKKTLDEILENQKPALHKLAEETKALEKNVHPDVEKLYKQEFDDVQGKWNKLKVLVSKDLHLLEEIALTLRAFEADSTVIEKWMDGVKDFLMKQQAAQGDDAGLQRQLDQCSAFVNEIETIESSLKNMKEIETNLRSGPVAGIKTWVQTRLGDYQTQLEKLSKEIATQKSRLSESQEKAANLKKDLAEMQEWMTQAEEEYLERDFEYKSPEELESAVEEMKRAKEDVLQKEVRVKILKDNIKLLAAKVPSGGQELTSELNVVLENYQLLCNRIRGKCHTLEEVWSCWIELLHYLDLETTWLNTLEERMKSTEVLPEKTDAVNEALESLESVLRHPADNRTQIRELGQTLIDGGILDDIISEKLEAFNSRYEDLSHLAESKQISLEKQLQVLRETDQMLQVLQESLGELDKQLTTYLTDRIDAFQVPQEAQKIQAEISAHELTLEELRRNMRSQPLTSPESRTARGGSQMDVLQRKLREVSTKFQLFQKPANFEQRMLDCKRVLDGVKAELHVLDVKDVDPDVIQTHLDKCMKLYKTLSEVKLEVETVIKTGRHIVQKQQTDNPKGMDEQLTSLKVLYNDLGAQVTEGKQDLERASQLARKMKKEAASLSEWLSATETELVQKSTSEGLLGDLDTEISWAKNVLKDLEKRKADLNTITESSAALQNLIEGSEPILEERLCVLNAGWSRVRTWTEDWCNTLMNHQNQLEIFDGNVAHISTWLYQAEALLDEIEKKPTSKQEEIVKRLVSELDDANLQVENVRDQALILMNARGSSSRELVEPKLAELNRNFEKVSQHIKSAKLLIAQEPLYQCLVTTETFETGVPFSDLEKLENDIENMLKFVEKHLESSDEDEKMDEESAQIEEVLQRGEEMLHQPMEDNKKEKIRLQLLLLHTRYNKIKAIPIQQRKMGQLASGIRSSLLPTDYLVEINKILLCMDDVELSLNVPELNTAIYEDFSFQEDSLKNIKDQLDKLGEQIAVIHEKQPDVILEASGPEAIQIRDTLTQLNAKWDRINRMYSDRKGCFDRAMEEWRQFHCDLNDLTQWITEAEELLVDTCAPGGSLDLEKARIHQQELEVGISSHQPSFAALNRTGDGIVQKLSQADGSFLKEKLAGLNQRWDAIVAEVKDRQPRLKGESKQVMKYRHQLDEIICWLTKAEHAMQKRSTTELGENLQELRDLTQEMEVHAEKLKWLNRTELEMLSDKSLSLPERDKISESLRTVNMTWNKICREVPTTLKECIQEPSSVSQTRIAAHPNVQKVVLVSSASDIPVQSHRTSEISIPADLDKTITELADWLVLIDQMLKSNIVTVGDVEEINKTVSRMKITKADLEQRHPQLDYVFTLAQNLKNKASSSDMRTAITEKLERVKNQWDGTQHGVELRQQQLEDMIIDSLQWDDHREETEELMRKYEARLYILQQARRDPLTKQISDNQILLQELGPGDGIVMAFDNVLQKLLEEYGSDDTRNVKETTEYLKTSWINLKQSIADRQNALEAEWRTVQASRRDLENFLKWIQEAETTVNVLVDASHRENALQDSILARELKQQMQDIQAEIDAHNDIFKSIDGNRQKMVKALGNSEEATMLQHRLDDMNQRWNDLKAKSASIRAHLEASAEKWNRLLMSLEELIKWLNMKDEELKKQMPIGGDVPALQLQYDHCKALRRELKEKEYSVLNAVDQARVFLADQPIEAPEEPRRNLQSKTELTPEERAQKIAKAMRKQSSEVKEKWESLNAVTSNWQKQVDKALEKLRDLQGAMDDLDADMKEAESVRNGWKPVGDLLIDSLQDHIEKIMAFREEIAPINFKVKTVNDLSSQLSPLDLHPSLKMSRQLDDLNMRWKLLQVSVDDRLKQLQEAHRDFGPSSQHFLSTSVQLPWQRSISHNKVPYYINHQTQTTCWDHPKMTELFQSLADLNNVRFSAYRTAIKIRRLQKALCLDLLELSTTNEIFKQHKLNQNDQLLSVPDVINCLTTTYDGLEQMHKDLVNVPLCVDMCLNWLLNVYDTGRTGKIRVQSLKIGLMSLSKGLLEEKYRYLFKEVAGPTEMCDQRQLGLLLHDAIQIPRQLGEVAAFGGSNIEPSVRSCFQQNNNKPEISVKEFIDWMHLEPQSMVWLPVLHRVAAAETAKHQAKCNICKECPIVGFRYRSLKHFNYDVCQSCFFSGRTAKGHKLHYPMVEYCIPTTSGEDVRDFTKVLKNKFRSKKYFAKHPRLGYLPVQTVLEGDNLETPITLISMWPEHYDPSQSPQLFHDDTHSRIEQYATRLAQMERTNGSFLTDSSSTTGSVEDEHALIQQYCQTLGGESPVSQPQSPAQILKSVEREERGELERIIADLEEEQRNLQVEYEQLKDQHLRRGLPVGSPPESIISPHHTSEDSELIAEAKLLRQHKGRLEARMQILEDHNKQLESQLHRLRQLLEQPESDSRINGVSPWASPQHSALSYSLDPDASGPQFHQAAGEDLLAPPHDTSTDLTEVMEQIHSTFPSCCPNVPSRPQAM
UniProt Q9BTA9: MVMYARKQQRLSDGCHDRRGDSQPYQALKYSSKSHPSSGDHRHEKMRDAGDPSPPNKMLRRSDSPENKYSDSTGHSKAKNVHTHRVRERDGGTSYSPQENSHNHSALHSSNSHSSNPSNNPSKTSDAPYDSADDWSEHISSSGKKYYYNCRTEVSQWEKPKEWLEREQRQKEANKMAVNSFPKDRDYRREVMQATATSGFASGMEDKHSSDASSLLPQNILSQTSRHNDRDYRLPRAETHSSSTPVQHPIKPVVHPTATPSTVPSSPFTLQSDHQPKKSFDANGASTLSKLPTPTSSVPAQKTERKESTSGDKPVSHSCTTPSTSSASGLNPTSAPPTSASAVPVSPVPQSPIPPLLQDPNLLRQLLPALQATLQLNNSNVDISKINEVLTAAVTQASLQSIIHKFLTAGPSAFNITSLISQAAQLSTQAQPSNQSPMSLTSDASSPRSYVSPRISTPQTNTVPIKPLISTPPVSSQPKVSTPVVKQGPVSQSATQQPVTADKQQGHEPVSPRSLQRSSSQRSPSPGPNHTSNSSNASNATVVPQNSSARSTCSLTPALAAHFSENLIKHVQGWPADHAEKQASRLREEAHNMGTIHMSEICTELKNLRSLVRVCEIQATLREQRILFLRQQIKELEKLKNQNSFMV

Compound: CC1Cc2ccccc2N1C(=O)C1CCCN(C1)C(=O)CCl (mixture of isomers) [TRIM25 ligand 11 (diastereomer mixture)]
Assay: probe-labelled cysteine peptide fold change vs DMSO (competition) (log2 fold change); higher = less target engagement (more negative = stronger competition)
Settings: THP-1, incubation time: 4 h
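Also: competitive chemoproteomic profiling in live THP-1 cells with an iodoacetamide desthiobiotin (IA-DTB) probe, comparing probe-labelled peptide intensities in compound-treated cells against DMSO-treated controls.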

| Target | probe-labelled cysteine peptide fold change (10 µM) | probe-labelled cysteine peptide fold change (50 µM) |
| --- | --- | --- |
| UTRN_P46939_447_METCPLDDDVK (UniProt P46939) | -0.0199 | -0.0786 |
| VPS13D_Q5THJ4_3722_LTCGLHGLVVQAK (UniProt Q5THJ4) | -0.0283 | -0.0749 |
| UTRN_P46939_3097_HFNYDVCQSCFFSGR (UniProt P46939) | 0.0812 | 0.164 |
| WAC_Q9BTA9_15_LSDGCHDR (UniProt Q9BTA9) | 0.0462 | -0.212 |
| USP9Y_O00507_541_ILDYSCSQDR (UniProt O00507) | 0.355 | 0.183 |
